These are yes or no findings as the source states them, for the method shown. Binding seen in cells or lysates may run through a third protein. Some binding calls cover weakened binding; strength is not graded here.
Biological target: PD-L1 (programmed death-ligand 1), in the immunoprecipitation with CSN5 (UniProt Q9NZQ7)
Experiment: co-IP; immunoprecipitation from cell lysate with immunoblot; cells and bait not told for this experiment (general IP method: IgG or PD-L1 antibody overnight at 4 °C, protein A/G beads)

Chains of the proteins cited; added tags and fusions are not shown. Residues count along the entry.
UniProt Q9NZQ7, residues 19-290: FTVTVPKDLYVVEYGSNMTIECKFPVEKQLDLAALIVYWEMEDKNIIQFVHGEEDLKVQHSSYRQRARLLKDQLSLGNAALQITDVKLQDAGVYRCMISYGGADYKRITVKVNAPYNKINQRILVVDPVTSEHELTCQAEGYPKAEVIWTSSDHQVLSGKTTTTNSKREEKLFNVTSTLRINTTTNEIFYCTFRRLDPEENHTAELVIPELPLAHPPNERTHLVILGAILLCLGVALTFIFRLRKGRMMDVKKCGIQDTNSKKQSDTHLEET
UniProt Q92905: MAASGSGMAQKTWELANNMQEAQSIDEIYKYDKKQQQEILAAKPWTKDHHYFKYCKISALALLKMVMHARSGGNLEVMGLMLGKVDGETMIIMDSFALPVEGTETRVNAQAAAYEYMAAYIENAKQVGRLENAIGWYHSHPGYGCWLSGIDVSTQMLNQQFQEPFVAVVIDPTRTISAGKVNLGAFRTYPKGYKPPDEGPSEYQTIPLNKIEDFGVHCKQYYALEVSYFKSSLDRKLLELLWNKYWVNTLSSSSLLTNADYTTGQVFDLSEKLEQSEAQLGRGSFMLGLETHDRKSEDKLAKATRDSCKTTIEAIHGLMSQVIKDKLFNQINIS

In the case of “CSN5 (from UniProt Q92905 1-334) (enzyme)”, the binding is reported as “binds”.
